Results: PubChem BioAssay AID493014 (National Center for Advancing Translational Sciences (NCATS), 2011)
This is one part of the list. These are further read-outs of the screen, such as a control signal, another cell line or another target. No call is given for them. Most of these compounds were active or inconclusive in the main read-out, so they are no random draw. Potencies come from curve fits of mixed quality, noted in brackets.

Test: qHTS Assay to Find Inhibitors of Chronic Active B-Cell Receptor Signaling
Settings: ABC-DLBCL IkBa-CBG/CBR reporter, luminescence ratio (green luciferase fused to IkBa over red control in TMD8 lymphoma cells), 4 h
Outline: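 Concentration-response series (up to 46 uM) were applied to TMD8 dual-reporter cells for 4 h at 37C with doxycycline. Green/red ratio, after filter-overlap correction, defined %Activity; red signal alone was normalised to basal cells and zero luminescence.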

[1] = measured here: CBR red luminescence, cell number
[2] = measured here: IkBa-CBG green luminescence

With `CCOC(=O)N1CCN(c2c(NCCCN(CC)Cc3ccccc3)c(=O)c2=O)CC1` the AC50 [1] was 11.2 µM [falling, partial curve, poor fit].

In the case of `Nc1nc(COC(=O)CCC(=O)c2ccccc2)nc(Nc2ccccc2)n1`, the AC50 [1] is reported as 2.31 µM [rising, full curve].

With `COc1ccc(N2C(=O)NC(NC(=O)c3cccnc3)(C(F)(F)F)C2=O)cc1` (stereo unspecified) the AC50 [1] was 12.6 µM [rising, single point].

With `CCOC(=O)C1CCCN(C(=S)NC2CCCC2)C1` (stereo unspecified) the AC50 [1] was 2.51 µM [rising, full curve, poor fit].

For `CS(=O)(=O)N1CCN(c2ccc([N+](=O)[O-])c3cccnc23)CC1`, the AC50 [1] was 35.5 µM [rising, single point].

For `O=C(Nc1c(C(=O)Nc2ccc3c(c2)OCCO3)cnn1-c1ccccc1Cl)c1ccco1`, the AC50 [1] was 7.31 µM [falling, partial curve, poor fit].

With `CCn1ccnc1[C@@H]1C[C@H]2CN(c3ccccc3OC)C(=O)[C@]23CCCN13` the AC50 [1] was 0.501 µM [rising, full curve, poor fit].

In the case of `O=C(C[C@H]1C[C@H](C(=O)N2CCOCC2)[C@@]2(CCC3CCCC3)c3[nH]c4ccc(Cl)cc4c3CCN2C1=O)NCCc1ccccn1`, the AC50 [1] is reported as 9.2 µM [rising, partial curve].

In the case of `CNC[C@H]1Oc2c(NS(=O)(=O)c3ccccc3)cccc2C(=O)N([C@H](C)CO)C[C@@H]1C`, the AC50 [1] is reported as 25.9 µM [rising, single point].

With `Cc1cccc(OCC(=O)NNC(=O)C2CCCCC2C(=O)O)c1` (stereo unspecified) the AC50 [1] was 29.1 µM [rising, single point].

For `COC(=O)C1CN(C(=O)C(C)Oc2ccc(C(C)C)cc2)c2ccccc2O1` (stereo unspecified), the AC50 [1] was 35.5 µM [falling, single point].

With `CCN1CCN(CC(=O)Nc2ccccc2)C(=O)C1=O` the AC50 [1] was 3.26 µM [falling, full curve, poor fit].

With `COC(=O)c1ccccc1NC(=O)CN1CCC(n2nnc3cc(C(F)(F)F)ccc32)CC1` the AC50 [1] was 6.51 µM [falling, single point].

In the case of `COC(=O)Nc1ccc(C)c2nsnc12`, the AC50 [1] is reported as 7.08 µM [rising, full curve, poor fit].

In the case of `Clc1cccc(Cl)c1CNC1CCCC1`, the AC50 [1] is reported as 6.51 µM [rising, single point].

For `COc1ccc(N2CCN(CCNC(=O)c3ccc4c(c3)[nH]c(=S)n3c5ccccc5nc43)CC2)cc1`, the AC50 [1] was 35.5 µM [falling, single point] and the AC50 [2] was 15.8 µM [rising, partial curve, poor fit].

With `CCc1noc(C)c1C(=O)OCC(=O)Nc1cccc(C)c1` the AC50 [1] was 32.6 µM [rising, single point].

With `CCN(CC)C(=O)c1cccc(-c2ccc(OC)cc2)c1` the AC50 [1] was 1.03 µM [falling, full curve] and the AC50 [2] was 0.651 µM [rising, partial curve, poor fit].

With `C[C@H](NC(=O)C1CCN(S(=O)(=O)c2ccccc2)CC1)C(=O)NCc1ccc(Cl)cc1Cl` the AC50 [1] was 7.08 µM [falling, full curve, poor fit].

For `COc1cccc(-c2noc(-c3ccc(Cl)nc3)n2)c1`, the AC50 [1] was 0.251 µM [rising, full curve, poor fit] and the AC50 [2] was 0.126 µM [rising, full curve].

For `CCOC(=O)c1sc(=NC(=O)c2ccco2)n(C)c1C`, the AC50 [1] was 6.31 µM [falling, partial curve, poor fit].

For `O=C(CCNS(=O)(=O)c1cccc2nonc12)NCCc1ccc(Cl)cc1`, the AC50 [1] was 23.1 µM [rising, single point].

For `O=C(Nc1nc2ccccc2[nH]1)c1ccc(Br)o1`, the AC50 [1] was 3.16 µM [falling, full curve].

In the case of `Cc1nc2cc(-c3sccc3-n3cccc3)nn2c(C)c1C`, the AC50 [1] is reported as 2.51 µM [rising, partial curve, poor fit].

With `COc1cc(C(CC(=O)N2CCOCC2)c2c(OC)cc(OC)c3ccc(=O)oc23)cc(OC)c1OC` (stereo unspecified) the AC50 [1] was 0.1 µM [rising, full curve, poor fit].

With `O=C(N/N=C/c1ccc(OC(F)F)cc1)C1=COCCO1` the AC50 [1] was 12.6 µM [falling, partial curve].

For `CC(C)N(C#N)c1nc(N2CCOCC2)nc(N2CCOCC2)n1`, the AC50 [1] was 7.08 µM [falling, partial curve, poor fit].

In the case of `CC(=O)Cn1c(=O)oc2ccccc21`, the AC50 [1] is reported as 11.2 µM [rising, single point].

With `COc1ccc(OC)c(N2Cc3ccccc3C2)c1` the AC50 [2] was 25.9 µM [rising, partial curve, poor fit].

With `COc1ccc(-c2nnc(SCC(=O)N3CCCC3)o2)cc1` the AC50 [1] was 35.5 µM [rising, single point].

For `COC(=O)c1ccc(NC(=S)NC2CC(C)(C)NC(C)(C)C2)cc1`, the AC50 [1] was 29.1 µM [falling, single point].

For `c1c2c(cc3sc(N4CCCCC4)nc13)OCCO2`, the AC50 [1] was 20.6 µM [falling, partial curve].

With `CCNc1nc(N)nc(Oc2ccc(OCC)nn2)n1` the AC50 [1] was 18.4 µM [rising, partial curve, poor fit].

For `O=C(CN1CCN(c2ccccc2F)CC1)c1c[nH]c2ccccc12`, the AC50 [1] was 10 µM [falling, partial curve, poor fit].

In the case of `Cc1ccc(C(=O)C(C)OC(=O)Cc2n[nH]c(=O)c3ccccc23)cc1C` (stereo unspecified), the AC50 [1] is reported as 14.6 µM [rising, partial curve, poor fit].

For `CCOC(=O)C1=C(C)N(CCCCCC(=O)O)C(=O)NC1c1ccc(Cl)cc1` (stereo unspecified), the AC50 [1] was 15.8 µM [falling, partial curve, poor fit].

With `COc1ccc(CNC(=S)N/N=C/c2ccc(O)c(OC)c2)cc1` the AC50 [2] was 20.6 µM [falling, partial curve, poor fit].

With `COc1ccc(NC(=O)c2c(N)no[n+]2[O-])cc1` the AC50 [1] was 35.5 µM [falling, single point].

In the case of `O=S1(=O)N=C(N=Nc2c(O)[nH]c3ccccc23)c2ccccc21`, the AC50 [1] is reported as 3.16 µM [rising, partial curve, poor fit].

With `Cc1c(-c2ccccc2)[n+](=O)c(-c2ccc(Cl)cc2)c(C)n1[O-]` the AC50 [1] was 35.5 µM [rising, single point].

For `Cc1ccccc1C1C2=C(Nc3[nH]n(-c4ccccc4)c(=O)c31)c1ccccc1C2=O` (stereo unspecified), the AC50 [1] was 29.1 µM [falling, single point].

With `O=C(N/N=C/c1cccnc1)c1ccccc1` the AC50 [1] was 12.6 µM [falling, partial curve].

For `COc1ccccc1/C=C/C(=O)NC(=S)Nc1ccccn1`, the AC50 [1] was 15.8 µM [falling, partial curve].

In the case of `COc1ccc(-c2cc(=O)c3ccccc3o2)cc1`, the AC50 [1] is reported as 1.26 µM [rising, full curve, poor fit].

In the case of `O=C(CSc1ccc([N+](=O)[O-])cc1)Nc1cccc(S(=O)(=O)Nc2ccccc2F)c1`, the AC50 [1] is reported as 15.8 µM [falling, single point].

For `CCOc1ccccc1N1CCN(CC(=O)Nc2nnc(CC)s2)CC1`, the AC50 [1] was 20.6 µM [falling, single point].

In the case of `Cc1ccc(S(=O)(=O)Nc2nc(C)c(C(=O)NN)s2)cc1`, the AC50 [1] is reported as 10 µM [falling, partial curve, poor fit].

With `Fc1ccccc1C1c2[nH]c3ccccc3c2CCN1Cc1cccn1-c1ncccn1` (stereo unspecified) the AC50 [1] was 20 µM [falling, partial curve, poor fit].

For `O=C(CSc1ccccn1)C12CC3CC(CC(C3)C1)C2`, the AC50 [1] was 10 µM [rising, partial curve].

For `CC(C)(C)NC[C@@H](O)COc1cccc2c1CCCC2=O`, the AC50 [1] was 18.4 µM [rising, single point].

For `COc1ccc(C(CNC(=O)c2cncc(Br)c2)N(C)C)cc1` (stereo unspecified), the AC50 [1] was 35.5 µM [falling, single point].

For `O=C1CC(c2ccccc2)=NN1c1ccc([N+](=O)[O-])cc1`, the AC50 [1] was 25.1 µM [falling, single point].

With `COc1cccc(NC(=O)COC(=O)c2c(F)cccc2Cl)c1` the AC50 [1] was 0.447 µM [falling, partial curve, poor fit].

With `O=c1[nH]c(-c2ccc(-c3cccc(Cl)c3)o2)nc2ccccc12` the AC50 [1] was 0.13 µM [rising, full curve, poor fit].

With `CC(C)(Oc1ccc(CCNC(=O)c2ccc(-c3ccc(Cl)cc3)o2)cc1)C(=O)O` the AC50 [1] was 15.8 µM [falling, partial curve, poor fit].

For `O=C(Cc1cccs1)NNC(=S)NC(=O)c1ccco1`, the AC50 [1] was 22.4 µM [falling, partial curve].

In the case of `O=C1C(=O)N(CC2COc3ccccc3O2)c2ccccc21` (stereo unspecified), the AC50 [1] is reported as 17.8 µM [rising, single point].

For `CCN1CCN(Cc2ccc(NC(=O)Nc3ccccc3OC)cc2)CC1`, the AC50 [1] was 23.1 µM [falling, single point].

In the case of `Cc1occc1C(=O)N/N=C/c1ccc(Cl)c([N+](=O)[O-])c1`, the AC50 [1] is reported as 14.6 µM [falling, partial curve].

With `CC(C)(C)S(=O)(=O)/C(C#N)=N/Nc1ccc(C#N)cc1` the AC50 [1] was 35.5 µM [rising, single point].

For `COc1ccc(CNC(=O)C[C@H]2C(=O)N(c3ccccc3)C[C@@H]2Cc2ccccc2)cc1`, the AC50 [1] was 17.8 µM [falling, partial curve, poor fit].

With `Cc1ccc(S(=O)(=O)N/N=C/c2cccc([N+](=O)[O-])c2)cc1` the AC50 [1] was 14.6 µM [falling, partial curve, poor fit].

For `COCCN1CCN(C(=O)C2CCC(=O)N(Cc3ccccc3F)C2)CC1` (stereo unspecified), the AC50 [1] was 5.62 µM [rising, single point].
